Measured values: paper PMC10458596 (Pharmaceuticals, 2023)
Strings that start with PEPTIDE1 are HELM notation: dots part the residues, brackets hold end groups and non-standard residues.

Assay: general procedure: Fmoc solid-phase peptide synthesis; Rink-amide MBHA or 2-CTC; HBTU/DIPEA or DIC/DMAP
Details: whole synthesis, HPLC

Substance	purity (crude or final not stated)
H-Phe-Glu-Ile-Ile-NH2	97%
PEPTIDE1{F.E.L.L.[am]}$$$$V2.0	99%
PEPTIDE1{F.E.L.L}$$$$V2.0	98%
PEPTIDE1{F.E.V.V.[am]}$$$$V2.0	96%
PEPTIDE1{F.E.[Nle].[Nle].[am]}$$$$V2.0	96%
